Measurements reported in PubChem BioAssay AID602203 (INSERM, 2012)
The whole screen tested 999 reagents; this is a part drawn at random. In the full data, 85 (8.5%) got an active call. 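Unclear how single-siRNA scores of -1, 0 or +1 give the printed -4 to 4 range; calls lie near -3 or 3 and beyond.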 Not stated in the record: the amount of reagent, the time to read-out, the dose of the treatment.

Screen: 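Follow-up of knock-downs that sensitize or protect A549 cells against cisplatin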 (follow-up of hits)
Cells: human A549 lung cancer cells
Reagent: siRNA pair against human genes
Challenge: cisplatin at a dose killing half of control-siRNA cells, given 48 h after transfection
Read-out: 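Two siRNAs per gene scored +1 protective, -1 sensitizing, 0 if toxic by LDH or growth-reducing by WST-1; cisplatin given 48 h later at 50% control kill; scores summed, mean death shift versus control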
Scale: summed siRNA score for cisplatin death: higher = more siRNAs reduced cisplatin-induced cell death; change in cisplatin death versus control: higher = fewer cells died than in control
Hit rule: In these data the active calls have summed siRNA score for cisplatin death at about -3 or lower, or at about 3 or higher

The opening 4 entries, ahead of the listing:
| target gene | PubChem SID | summed siRNA score for cisplatin death | change in cisplatin death versus control (percentage points) | Outcome |
| --- | --- | --- | --- | --- |
| LRIT2 | SID131523013 | -1 | – | inactive |
| LOC440224 | SID131523044 | 1 | – | inactive |
| LOC440423 | SID131523162 | 1 | – | inactive |
| CHRNA4 | SID131500404 | -1 | – | inactive |

The list itself, from the first entry:
| target gene | PubChem SID | summed siRNA score for cisplatin death | change in cisplatin death versus control (percentage points) | Outcome |
| --- | --- | --- | --- | --- |
| LRIT2 | SID131523013 | -1 | – | inactive |
| LOC440224 | SID131523044 | 1 | – | inactive |
| LOC440423 | SID131523162 | 1 | – | inactive |
| CHRNA4 | SID131500404 | -1 | – | inactive |
| STAT6 | SID131500642 | -2 | – | inactive |
| NEK2 | SID131523238 | 2 | – | inactive |
| TMED1 | SID131500612 | -3 | -8.74 | active |
| COX7C | SID131522978 | 4 | 10.8 | active |
| CER1 | SID131518925 | -1 | – | inactive |
| AOX1 | SID131501006 | -1 | – | inactive |
| PLAAT3 | SID131500475 | 0 | – | inactive |
| KU-MEL-3 | SID131523065 | 1 | – | inactive |
| MCRIP1 | SID131522405 | 2 | – | inactive |
| GTF3C4 | SID131502752 | 1 | – | inactive |
| PIK3CD | SID131522468 | 0 | – | inactive |
| CEP57L1P1 | SID131523027 | -1 | – | inactive |
| EVC | SID131523207 | 1 | – | inactive |
| TSSK6 | SID131523093 | 0 | – | inactive |
| KLK3 | SID131500706 | -1 | – | inactive |
| MAFF | SID131500701 | -1 | – | inactive |
| LOC391345 | SID131523166 | 1 | – | inactive |
| LOC402162 | SID131523097 | 0 | – | inactive |
| FBLN7 | SID131502792 | 1 | – | inactive |
| CELSR1 | SID131523068 | 1 | – | inactive |
| FBXW4P1 | SID131500590 | 1 | – | inactive |
| MXD1 | SID131501020 | -1 | – | inactive |
| RSL1D1 | SID131522849 | 1 | – | inactive |
| GPR174 | SID131522925 | 2 | – | inactive |
| HDLBP | SID131523189 | 3 | 8.02 | active |
| HEMK1 | SID131500438 | -1 | – | inactive |
| OLR1 | SID131500479 | -1 | – | inactive |
| ALDH7A1 | SID131522853 | 3 | 6.8 | active |
| UCK2 | SID131522926 | 0 | – | inactive |
| ITGA7 | SID131500297 | -1 | – | inactive |
| ROR1 | SID131522755 | 1 | – | inactive |
| BRPF3 | SID131500304 | 0 | – | inactive |
| C1QL3 | SID131522963 | 0 | – | inactive |
| CSAG1 | SID131523091 | 0 | – | inactive |
| UBE2L3 | SID131500344 | -3 | -8.7 | active |
| LTBP3 | SID131523192 | -2 | – | inactive |
| TMPRSS11F | SID131523079 | 1 | – | inactive |
| HSD17B11 | SID131500940 | -1 | – | inactive |
| PALS2 | SID131500596 | 3 | 13.5 | active |
| CACNA2D4 | SID131501297 | -2 | – | inactive |
| KTN1 | SID131500290 | -1 | – | inactive |
| PSMC3IP | SID131500474 | -2 | – | inactive |
| MYL2 | SID131523128 | 1 | – | inactive |
| GATAD1 | SID131500947 | -1 | – | inactive |
| C3orf62 | SID131522886 | 0 | – | inactive |
| LOC390801 | SID131523049 | -1 | – | inactive |
| OR10A2 | SID131500387 | -1 | – | inactive |
| STEAP2 | SID131522920 | 0 | – | inactive |
| PRR23E | SID131522990 | 0 | – | inactive |
| MSH6 | SID131523163 | 1 | – | inactive |
| LOC283412 | SID131522648 | 1 | – | inactive |
| SLC25A38P1 | SID131522959 | 2 | – | inactive |
| IL6R | SID131500465 | -3 | -11.7 | active |
| DSC2 | SID131523016 | -1 | – | inactive |
| IFI27L1 | SID131523124 | 0 | – | inactive |
| CD34 | SID131518911 | -3 | -6.18 | active |
| SGK3 | SID131522447 | 1 | – | inactive |
| ZFP37 | SID131522928 | -1 | – | inactive |
| PRELID1P6 | SID131521501 | -1 | – | inactive |
| GALNT1 | SID131500416 | 0 | – | inactive |
| PANK1 | SID131523118 | 1 | – | inactive |
| DYNLT2 | SID131500711 | -3 | -7.73 | active |
| PLXNB1 | SID131500506 | 0 | – | inactive |
| LOC440986 | SID131523105 | 0 | – | inactive |
| STOML2 | SID131500774 | -1 | – | inactive |
| PEX39 | SID131522912 | 1 | – | inactive |
| SLC27A1 | SID131522810 | -1 | – | inactive |
| EPN2 | SID131500979 | -2 | – | inactive |
| TOPORS | SID131500327 | 0 | – | inactive |
